Results reported in patent US10568950B1, “Peptides, combination of peptides and scaffolds for use in immunotherapeutic treatment of various cancers” (Immatics Biotechnologies GmbH, priority 2015, dated 2020).
For expression read-outs the peptide stands for its source gene, whose mRNA was measured; the gene is not named for every peptide.

Tested on: source genes of the peptides
Experiment: Expression of source genes in tumor entities, TCGA Research Network data (target coverage)
Parameters: species or system human
Conditions: over-expressed = more than 2-fold above highest 75% percentile of normal organs

## 92: peptide found in IGFBP3 (gene looked up) (LLRGPPVARA; listed as Homo sapiens) [compound 92]
Cholangiocarcinoma
  Target coverage, over-expression category of source gene, CHOL (N = 36): C (>=5% of tumors above the cutoff, but <20%)
Kidney chromophobe
  Target coverage, over-expression category of source gene, KICH (N = 66): C (>=5% of tumors above the cutoff, but <20%)
Lower grade glioma
  Target coverage, over-expression category of source gene, LGG (N = 534): C (>=5% of tumors above the cutoff, but <20%)
